Results as given in publication PMC3795697.
For at least one entry, the source does not settle the construct or the ends of the probe. The comparison behind a weaker result is the experiment's own reference, which may not be listed here. Protein sequences can lack the tags named with them.

Biological target: T1, BCARR (26 kDa CBS domain protein, CBSDP) (Lactobacillus helveticus CM4) (UniProt U6BZW9)
T1 sequence (looked up, limits assumed): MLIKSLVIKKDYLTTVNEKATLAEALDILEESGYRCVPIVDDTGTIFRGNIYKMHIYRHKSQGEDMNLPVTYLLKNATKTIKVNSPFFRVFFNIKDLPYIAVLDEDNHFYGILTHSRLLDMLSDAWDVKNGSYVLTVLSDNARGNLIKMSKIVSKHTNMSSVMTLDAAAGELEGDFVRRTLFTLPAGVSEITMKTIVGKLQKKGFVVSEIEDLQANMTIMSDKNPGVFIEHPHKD
Assay: EMSA
Settings: EMSA: 20 mM Tris-HCl pH 8.5, 10 mM MgCl2, 100 mM KCl, 1 mM DTT, 0.01% BSA, 10 mM BCAAs or single amino acids, 30 C 10 min, footprinting same buffer, DNase I 37 C 1.5 min, recombinant protein, probe letters rebuilt from the primers and the genome

[1] = 10 mM BCAAs, 2.3 uM BCARR, slight shift, label: 32P 5' end

Row | Sequence | binding result [1] | binding result (10 mM BCAAs) | further results
1 | ATGTACAGTTGATCTTGAAATATCACCGGAAGTAAAAAGAAATGAGGTAAAGAGCAACCATGCATCGAAAAAATTCTTCTTATATAGTTTGATAGGACTC (double strand) [pepV -216/-116] | binds more weakly | – | –
2 | TCCATCCTATCGCTTAAAGGTATAATGAATAAAAATAGCAAAAAAGAGCAGAGTCCTATCAAACTATATAAGAAGAATTTTTTCGATGCATGGTTGCTCT (double strand) [pepV -266/-166] | binds more weakly | – | –
3 | TTCTTGTCGGCATGGTATCCAGGCACGACAGGAACAACCACATCGCTAAATGATTTCTTGATCTGATTGCCAAGGAGTGGTGTACTTGCCATCTTCGATGATCTTGCCGGTGATTAGACTAGCGGTAACGGTACTCTTAAAGTCAATGGTTTGAACATTGTCCTTAGGTGTTAATTCACCTGCACCATCATATTTAACGACAAAATTGATTTGACGAGAATATGCACTTGGATCAACCAATTCATTAGGATGATCCGCATCAACGCGAATAATTGGCATTTTCATTGTAATGATGAAAACTGGAACAGTGG (double strand) [pepCE upstream] | – | binds | –
4 | TCATCTTTTTTAGCAGCAGCTAATTTCTTGTAGTCTAAATTCATATATTTCTCTCCCTTAATTAAATTGATTAATAATATTTTATCAGAAATGTTTGATTCTTACTAAAAATAAGATAC (double strand) [pepV -76/+43] | binds more weakly | – | –
5 | CTAGTAATAGATCACTCTGCTTTTCCAAAGGTCATTCCTCCATTTATAGCTTTTTTATTAAAAGCTGTTTAATCTTTTTTATTTATTTTCTAATTATAAACACAAAGCTGGTCGTATGCAAATAACTACACGAATTTTTTTCAGAAAATTAACCTTGATGTGACTTAATATATGATACAGCGTCACCAACAGTCTTAATTTTCTCAGCTTCGTCATCAGGAATTTCTGAGCCAAATTCATCTTCAAGTT (double strand) [dppD upstream] | – | binds | –
6 | TCCATCCTATCGCTTAAAGGTATAATGAATAAAAATAGCAAAAAAGAGCAGAGTCCTATCAAACTATATAAGAAGAATTTTTTCGATGCATGGTTGCTCTTTACCTCATTTCTTTTTACTTCCGGTGATATTTCAAGATCAACTGTACATTCATGATAGTCTATCTTTGTTTTGAAAAACAAATTTATTTGTATCTTATTTTTAGTAAGAATCAAACATTTCTGATAAAATATTATTAATCAATTTAATTAAGGGAGAGAAATATATGAATTTAGACTACAAGAAATTAGCTGCTGCTAAAAAAGATGA (double strand) [pepV upstream 309 bp] | – | – | binding result (10 mM BCAAs (Val, Leu, Ile), shift at 1.5 uM BCARR): binds; binding result (10 mM Ile (most effective)): binds; binding result (10 mM Leu): binds; binding result (10 mM Val): binds; binding result (no BCAAs, shift at 3 uM but not 1.5 uM BCARR): binds more weakly
7 | GCTACAAACATTGTGTCAGCTAAGTTATAAATCATCGTGGTAATCATCCCCAGCACCACAGGAAAAGCTAATTTAAAATAGACTTTTTTATAGGTGCTTTTGCAAATAATTCATCCATAAATTTTTCCTACTCTCATTCAAATAATTCTTACCAATTTATTATATTCTTTTTTGAATCTGCTTATGGCTGAGATTTTTGAAAAATACTTTAATTAAGAAAAGCAATCTATTATACTGAATACAATATGAAATTTAAATGAAAAGGTGGCGCAAGATATGAGTTTTTACGATTTAAGTTACGAGCAAG (double strand) [pepT2 upstream] | – | binds | –
8 | TTTCAAGATCAACTGTACATTCATGATAGTCTATCTTTGTTTTGAAAAACAAATTTATTTGTATCTTATTTTTAGTAAGAATCAAACATTTCTGATAAAATATTATTAATCAATTTAATTAAGGGAGAGAAATATATGAA (double strand) [pepV -136/+4] | – | – | binding result (10 mM BCAAs, 2.3 uM BCARR (text: 3 uM), highly shifted, label: 32P 5' end): binds
9 | CCGTCAGCATCAACAGTTGCTAAGTAAACTAAGTTATTCTTGAAAAGATTTACTTGTTCTTCAGTAAGCTTGTTAGTATTTAATTTCTTCATAGATAATACATCCCTTCTGTTTTATCAATACACTATAAGTATACATCAATTTAATAGCAGGTGTTAGAGATGTGCTTACATCCTTATTTTTATTTAACAAAATGCTTTTATTACTATAAATAAGCAAAATTAAATAAGCAAAATTAAATTTTCATTTTATTTTAAAAAATGCTATGATTTAACCAACTAAAAAACAAAGGAGAAAACATATGAATTTAGCAAAAATCCGCG (double strand) [pepO2 upstream] | – | binds | –
